From PubChem BioAssay AID1794845 (National Center for Advancing Translational Sciences (NCATS), 2023)
In all, about 6,900 compounds went through this assay and fewer than 10 were called active. Calls follow the shape of the dose curve; as a rule, active = well fitted curve in the direction sought with a large enough effect; inconclusive = small, poorly fitted or top-dose-only effect, or another doubt; inactive = no such curve, though single readings can be large or run the other way. Some of the results follow.

Amino acid sequences for entries named in this document (tags omitted). A change or cut given only in a name is not applied to a line headed by its entry.
UniProt C7C422: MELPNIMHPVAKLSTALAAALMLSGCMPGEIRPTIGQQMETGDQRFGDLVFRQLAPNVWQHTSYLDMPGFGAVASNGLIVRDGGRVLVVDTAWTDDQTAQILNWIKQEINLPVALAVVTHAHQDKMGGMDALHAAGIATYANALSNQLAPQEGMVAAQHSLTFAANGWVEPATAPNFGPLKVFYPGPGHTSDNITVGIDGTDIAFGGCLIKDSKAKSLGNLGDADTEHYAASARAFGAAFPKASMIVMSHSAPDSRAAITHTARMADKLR

target: Metallo-beta-lactamase type 2 (Klebsiella pneumoniae) (UniProt C7C422); assay: qHTS to identify inhibitors of the New Delhi Metallo-beta-lactamase (NDM): primary screen against the NCATS Gemini Collection; conditions: NDM-1 enzyme, meropenem hydrolysis, absorbance 300 nm; at 38.4 µM (top of the series) unless noted; also: % of control where 0% means no effect
In short: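 NDM-1 at 2 nM final in 50 mM HEPES pH 7.0, 1 uM ZnSO4, 0.01% Tween20, preincubated >30 min with compound. Meropenem 50 uM final added; absorbance at 300 nm after 30 min.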

Activity % (negative = inhibition), inactive:
C[C@]1(CO)[C@H]2Cc3sc(-c4ccsc4)nc3[C@@H](CC(=O)Nc3cccc(O)c3)[C@]2(C)CC[C@H]1O 10.8%
O=C(N[C@H]1CO[C@H]2[C@@H]1OC[C@@H]2Nc1nccc(-c2ccc(-c3ccccc3)cc2)n1)C1CCCCC1 33.3%
COc1ccc(NC(=O)N2CC(N(CC(C)C)C3CCOCC3)C2)cc1F 0.874%
COc1ccc(-c2ccc(NC(=O)C3CCCC3)cc2)nn1 10.9% [at 57.5 µM]
COc1ccc(CN2CCCC(CNC(=O)NC(C)C)C2)cc1O (stereo unspecified) -3.37%
O=C([C@@H]1CNC[C@H](C(=O)N2CCN(c3ccncc3)CC2)C1)N1CCOCC1 14.4%
OC[C@@H]1CNC[C@H]1C1CCN(C2CNC2)CC1 38.8%
COCC(=O)N1CCN(CC(=O)NCc2cccs2)[C@H]2CS(=O)(=O)C[C@H]21 2.71%
Cc1nn(C)c(C)c1CN(Cc1ccnc2ccccc12)C1CC1 5.38%
Cc1nc2c(c(-c3ccc(Cl)cc3)n1)CCN(C(=O)N(C)C)CC2 17.6%
O=C(C[C@@H]1CCNC[C@@H]1Cc1cc(CN2CCCCC2)on1)N1CCN(c2ccccc2)CC1 8.74%
O=[S+]([O-])(c1cccs1)N1CCn2c(nnc2C2CC2)C1 7.72% [at 57.5 µM]
O=C(Cn1cccc1-c1nc(-c2ccccc2)no1)N1CCc2ccccc21 0.577%
O=C(CC(c1ccccc1)c1ccccc1Cl)N1CCOCC1 (stereo unspecified) 0.0971%
Cc1ccccc1N(C)C1CN([S+](=O)([O-])c2ccccc2)C1 -11.3%
COc1ccc(-c2cnc(NC(=O)Cc3ccc(F)cc3)c3c2CCO3)cn1 15.6% [at 57.5 µM]
Cc1ncsc1CCC(=O)N1CC[C@@H]2[C@@H](CCC(=O)N2CCN)C1 5.84%
O=C(C1CCCN([S+](=O)([O-])c2cccs2)C1)N1CCC(c2nc3ncccc3[nH]2)CC1 (stereo unspecified) 1.08%
COCCNS(=O)(=O)c1cc(C(=O)O)cc(-c2ccncc2)c1 5.26%
COc1ccccc1C(CC(=O)NCC(C)C)c1cn(C)c2ccccc12 (stereo unspecified) 5.61%
Cc1nn(C)cc1CN(C)C(=O)c1cc2cn(C(C)C)cc2s1 2.7%
COc1ccc(-c2cc3nc4c(c(=O)n3[nH]2)CN(S(=O)(=O)c2cccs2)CC4)cc1 19.4%
Cc1noc(C)c1S(=O)(=O)N1CCC2(C1)C(=O)N(c1ccccc1)c1ccccc12 (stereo unspecified) -3.2%
Cc1nc(C)c(C(=O)N2CCC3(CC2)NC(=O)CC3C(=O)O)s1 (stereo unspecified) 0.0592%
COc1cc(CNC(=O)c2nc(C(O)c3ccccn3)oc2C)cc(OC)c1 (stereo unspecified) 48.7% [at 57.5 µM]
Cc1cc(Cl)ccc1OCC(=O)N[C@@H]1CCOC[C@H]1OCC(=O)O 12.4%
CCN(CC)c1cc(CCC(=O)NCc2cc(F)ccc2F)ccn1 4.01%
CCN(CC)c1cc(CCC(=O)N2CCC(C)CC2)ccn1 12%
CN(CCCNC(=O)C1(CCO)CC12CCOCC2)C1CCCCC1 (stereo unspecified) 4.09%
Cc1cnc(C(=O)NC2C[C@H]3CC[C@@H](C2)N3S(=O)(=O)c2ccc(C)c(F)c2)cn1 (stereo partly specified) 10%
CC(=O)Nc1ccc(CN2CC(Oc3ccc4c(c3)OCO4)C2)cc1 4.48%
C=CCOc1c(OC)ccc2c1CN(Cc1ccccc1)C(=O)CCN2CC(O)COc1ccc(OC)cc1 (stereo unspecified) -0.982%
O=C(C1CCCN1[S+](=O)([O-])c1cccc(C(F)(F)F)c1)N1CCC(N2Cc3cccn3C2=O)CC1 (stereo unspecified) 7.5%
CCS(=O)(=O)N1CCC(CCOC)(NC(=O)C2CC2)CC1 9.08%
Cc1cc(CN2CCc3nn(C)c(=O)n3CC2)n(C)n1 0.0396%
COCCC1(NC(=O)c2ccccc2)CCN(C(=O)c2ocnc2C)CC1 -2.57%
O=C(c1ccc2c(c1)OCCO2)N1CCc2[nH]nc(-c3ccccc3F)c2C1 1.12%
CC(C)c1ccc(CC(=O)N2CCCc3ncc(C(=O)NCCc4c[nH]c5ccccc45)cc32)cc1 13.3%
CCN(CC)Cc1cc(C2CC(=O)Nc3n[nH]c(C(=O)O)c32)ccc1OC (stereo unspecified) -4.59%
C=CCCC(=O)N1CCOc2c(O)cc(-c3nc4ccccc4s3)cc2C1 8.94%
COc1ccccc1C(=O)N1CCC(Cc2nncn2-c2ccccc2)CC1 14.6%
CN1CCN(C(=O)c2cc(C3CC3)[nH]n2)CC12CCNC(=O)CC2 (stereo unspecified) 22.2%
CCN1c2cc(C(=O)Nc3cccc(F)c3)ccc2C(=O)N2CCCC21 (stereo unspecified) 54.4%
CNC(=O)c1cc(C)nc2onc(C3CCCN(C(=O)Cc4ccc(OC)cc4)C3)c12 (stereo unspecified) 14.1%
O=C(NCc1ccon1)C1CCCN(C2CCN(c3nc4ccccc4o3)CC2)C1 (stereo unspecified) -11.1%
Cc1ccc(NC(=O)CCNc2c(C)nc3cnccn23)c(F)c1 0.642%
CC(=O)NCC(=O)N1Cc2ccccc2CC2(CCN(CC3CCCCC3)C2)C1 (stereo unspecified) -4.27%
CC(C)C(=O)N1CCC(CCOc2ccc(F)cc2)C1 (stereo unspecified) -8.63%
COCCCN1CC2(CCC1=O)CCN(C(=O)Nc1ccccc1F)CC2 -0.277%
Cn1cccc1CN1CCC2(CC1)COc1ccccc1[S+](=O)([O-])N2 3.93%
CCOC(=O)C1(Cc2ccccc2F)CCCN(C(=O)c2ccc3c(c2)OCCO3)C1 (stereo unspecified) -0.209%
COc1cncc(Nc2cnc3ccc(N(C)Cc4ccc(F)cc4)nn23)c1 28.1% [at 57.5 µM]
COc1cc(C(=O)N2CCC(Cc3nc(C(C)C)no3)CC2)cc(OC)c1OC -1.34%
CNC(=O)N1CCC(C2CCN(C(=O)c3cccs3)C2)CC1 (stereo unspecified) -2.22%
O=C1Nc2ccccc2CC12CCCN2Cc1ccccc1 (stereo unspecified) 11.6% [at 57.5 µM]
OC(COc1ccccc1CNCC1CCOCC1)CN1CCSCC1 (stereo unspecified) -4.61%
COCCN1CC(c2n[nH]c(C3CCOCC3)n2)CCC1=O (stereo unspecified) 50%
Cc1ccc(C(=O)N2CC[C@@](C)(O)[C@@H](Cc3ccccc3)C2)cc1C -3.8%
Cn1cnc(S(=O)(=O)N2C[C@@H](Oc3ccccc3)C[C@H]2C(=O)N2CCOCC2)c1 -1.42%
O=C(Cc1ccc(F)cc1)NC1CCN(c2cc(-c3ccccc3)[nH]n2)CC1 1.4%
COc1cccc(-c2ccc(C(=O)NCCNC(=O)c3ccccc3OC)cc2)c1 14.2%
Cc1cc2c(c(=O)n(-c3ccc(F)cc3)c(=O)n2CC(=O)Nc2cccc(C#N)c2)n1C 7.14%
CN1c2cccnc2CN(C(=O)Nc2cccc(C(F)(F)F)c2)CC[C@H]1CO -5.29% [at 57.5 µM]
Cc1nc(NCCC2CCOC2)c2c(C)nn(C)c2n1 (stereo unspecified) 6.1%
O=c1[nH]nc2n1CCC(NS(=O)(=O)c1ccc(Cl)s1)CC2 (stereo unspecified) -1.87%
c1coc(-c2noc(CN3CCCC3c3nc(-c4ccncc4)no3)n2)c1 (stereo unspecified) 2.62%
COc1ccc(CN2CCCC3(C2)C(=NC2CCCCC2)NC(=O)N3c2cccnc2)cc1 (stereo unspecified) 6.19%
CCCNC(=O)CCc1ccnc(N2CCCC2)c1 20.6%
Cc1cn(CC(=O)N[C@@H]2COCC[C@@H]2OCC2CC2)c(=O)[nH]c1=O 2.08%
COc1cc2c(cc1NS(C)(=O)=O)C(c1cccc3c1OCO3)CC(=O)N2 (stereo unspecified) 0.737%
CCn1cc(C(=O)N2CCc3cc(S(=O)(=O)NCC4CCCO4)ccc3C2)cn1 (stereo unspecified) 1.64%
CC(C)CCN1CC(C(=O)NCCc2ccncc2)C2(CCOCC2)C1 (stereo unspecified) 1.09%
COc1ccc(Cn2c(C3CCN(C(=O)C4(c5ccccc5)CC4)CC3)n[nH]c2=O)cc1 -0.839%
CNC(=O)c1cc(C2CC2)nc2onc(C3CCN([S+](=O)([O-])c4ccccc4)C3)c12 (stereo unspecified) 31.7%
Cc1ccc(F)c(C(=O)NC(C)c2cnn(-c3ccccc3)c2C)c1Cl (stereo unspecified) -3.38%
CCC[C@@H]1CN(C(=O)CNS(=O)(=O)c2cccs2)C[C@H]1NC(C)=O 0.587%
F[C@@H]1CN(C2CCC2)C[C@@H]1OCc1nc2ncccc2[nH]1 11.3% [at 77.1 µM]
COc1cccc(-c2cccc(C(=O)N3C[C@H](CO)C[C@H](CN(C)C)C3)c2)c1 1.81%
Cc1ccc(S(=O)(=O)N2CCc3nc(N(C)Cc4cccnc4)[nH]c(=O)c3CC2)cc1 27.5%
COc1ccc(-c2noc(-c3cccn3CC(=O)NC(C)C)n2)cc1F 0.713%
CCc1noc(-c2cn(C3CCN(C(=O)Cc4cccc(OC)c4)CC3)nn2)n1 2.68%
CCN(CC1CCN(CCc2ccccc2C)CC1)C(=O)c1csc(C)n1 -2.71%
COc1ccc(CN2C(=O)O[C@@H]3CN(c4nc(C)cc(C)n4)C[C@@H]32)cc1OC 3.49%
COCCOC1CCOC2(CCN(C(=O)c3cnccn3)CC2)C1 (stereo unspecified) -0.664%
c1cc(-c2noc([C@@H]3CCCN3Cc3ncc[nH]3)n2)cc(N2CCCC2)n1 -4.89% [at 57.5 µM]
COCC(=O)N[C@H]1C[C@H]2C(=O)NC[C@@H](CCC(=O)N3CCN(c4ccccc4)CC3)N2C1 0.0438%

Looked up by structure from the list above (four):
Activity % (negative = inhibition), inactive:
CCn1cc(C(=O)N2CCc3cc(S(=O)(=O)NCC4CCCO4)ccc3C2)cn1 (stereo unspecified) 1.64%
O=C(NCc1ccon1)C1CCCN(C2CCN(c3nc4ccccc4o3)CC2)C1 (stereo unspecified) -11.1%
COc1ccc(-c2ccc(NC(=O)C3CCCC3)cc2)nn1 10.9% [at 57.5 µM]
COCCCN1CC2(CCC1=O)CCN(C(=O)Nc1ccccc1F)CC2 -0.277%
